Some of the results follow. Shown are side measurements of this screen, not its main read-out; they come without a call. Most of these compounds were active or inconclusive in the main read-out, so they are no random draw. Words in brackets tell the shape of the fitted curve; partial curves, single points and poor fits give uncertain potencies.

The experiment can be described thus: Cell signaling CRE-BLA (Fsk stim). Particulars: CHO CRE-bla reporter (cAMP response element driving beta-lactamase), forskolin EC10, beta-lactamase ratio; measured here: 460 nm blue channel. An outline of the steps: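 Titrated compounds plus EC10 NKH 477 on CHO CRE-bla cells, 3 h, 37 °C. CCF4, 2 h RT. Ratio 460/530 nm → AC50.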
As for `Cc1ccsc1C(=O)OCC(=O)c1cc(C)n(CC2CCCO2)c1C` (stereo not drawn), the AC50 (in general, the concentration giving half of the maximal activity seen) was 0.0631 µM [rising, full curve, poor fit].

For the compound `CN(C)c1ccc(/C=C/C(O)=C2/C(=O)N(C)C3(C)CC2c2ccccc2O3)cc1` (stereo not drawn), the AC50 was 12.6 µM [rising, partial curve].

Consider `CCOC(=O)N1CCN(c2cc(NCCC(=O)O)c3c4c(onc24)-c2ccccc2C3=O)CC1`, for which the AC50 is 20 µM [rising, single point].

`COC(=O)C1CCC(C)(C(=O)Nc2ccccc2)C1(C)C` (stereo not drawn): the AC50 is 0.0158 µM [falling, partial curve].

Consider `COc1ccc2cc(CN(Cc3ccco3)Cc3nnnn3C3CCCCC3)c(=O)[nH]c2c1`, for which the AC50 is 25.1 µM [rising, single point].

As to `Cc1cccc(NC(=O)c2cc3n(n2)C(C(F)(F)F)CC(c2ccc4c(c2)OCO4)N3)c1` (stereo not drawn), the AC50 is 12.6 µM [falling, partial curve].

With `Cn1nc(-c2ccccc2)c2nc3ccccc3nc21`, the AC50 was 3.98 µM [rising, partial curve].

Consider `COc1ccccc1-c1ccc2ncnc(N(C)Cc3ccco3)c2c1`, for which the AC50 was 3.98 µM [falling, single point].

Turning to `Cn1cnc2c1c(=O)n(Cc1ccccc1)c(=O)n2C`, the AC50 was 7.94 µM [rising, partial curve].

In the case of `CCOc1ccccc1NC(=O)Cn1nnc(-c2ccc(OCC)c(OCC)c2)n1`, the AC50 was 1.58 µM [rising, full curve].

For `O=c1c(CCc2ccccc2)nc2cnc(N3CCNCC3)nc2n1Cc1cccs1`, the AC50 is 12.6 µM [rising, partial curve].

For the compound `CCOC(=O)N1CCN(C(=O)c2ccc3c(=O)n(-c4ccc(OC)cc4OC)c(=S)[nH]c3c2)CC1`, the AC50 was 0.126 µM [falling, full curve].

For the compound `Cc1cccc(-n2nnc(C(=O)NC3CCCc4ccccc43)c2N)c1` (stereo not drawn), the AC50 is 3.98 µM [falling, single point].

For `CCN1C(=O)c2ccccc2S(=O)c2ccc(C(=O)NC3CC3)cc21` (stereo not drawn), the AC50 was 12.6 µM [rising, single point].

Regarding `CCOC(=O)NC(Nc1nnc(SCC)s1)(C(F)(F)F)C(F)(F)F`, the AC50 was 0.631 µM [falling, full curve].

Regarding `O=C1CN(CC(=O)N2CCOCC2)c2ccccc2O1`, the AC50 is 0.0631 µM [falling, full curve].

As to `Cc1ccc(-n2nc3ccc(N)cc3n2)cc1`, the AC50 is 10 µM [rising, partial curve].

With `O=C1N=C(c2ccccc2)C(c2ccccc2)N1` (stereo not drawn), the AC50 is 1.58 µM [rising, partial curve].

As for `Cn1c(SCc2nc3ccccc3c(=O)[nH]2)nnc1-c1ccco1`, the AC50 is 25.1 µM [rising, single point].

Regarding `Cc1onc(-c2ccccc2)c1C(=O)Nc1nc(-c2cc(F)ccc2F)cs1`, the AC50 was 2.51 µM [falling, partial curve].

`CCOC(=O)c1c(N)n(CCOC(=O)c2cccs2)c2nc3ccccc3nc12`: the AC50 was 12.6 µM [rising, partial curve].

On to `CC[C@H]1C(=O)OC[C@@H]1Cc1cncn1C`, for which the AC50 is 5.01 µM [falling, full curve, poor fit].

Take `C=CCn1c(=O)/c(=C/c2cc(OC)c(OC)c(OC)c2)s/c1=C(/C#N)c1nc2ccccc2n1C`: the AC50 was 0.794 µM [rising, full curve].

With `COc1ccc(Oc2ncc3ncc(=O)n(Cc4cccc(OC)c4)c3n2)cc1`, the AC50 is 12.6 µM [rising, partial curve].

As to `C=CCN1C(c2ccccc2)=CS/C1=C(\C#N)c1nnc2n1CCCCC2`, the AC50 is 5.01 µM [falling, single point].

On to `Cc1ccc(S(=O)(=O)N2CCN(C(=O)CN3CCN(C)CC3)C2)cc1`, for which the AC50 was 0.251 µM [falling, full curve, poor fit].

Consider `COc1ccccc1C(=O)Nc1cccc(-c2cn3ccsc3n2)c1`, for which the AC50 is 2.51 µM [rising, full curve].

As to `COc1nc(Nc2ccc(OC)c(Cl)c2)nc(OC)n1`, the AC50 was 7.94 µM [rising, partial curve].

Take `O=C(CSc1nnc2scc(-c3ccccc3)n12)N1CCCc2ccccc21`: the AC50 was 10 µM [rising, partial curve, poor fit].

`O=C(c1cnccn1)N1CCC[C@@]2(CCN(Cc3nccs3)C2)C1`: the AC50 is 5.01 µM [falling, single point].

As for `O=P(O)(O)c1ccccc1OCCOCCOc1ccccc1P(=O)(O)O`, the AC50 is 25.1 µM [rising, single point].

`COc1ccc(NC(=O)N2CC[C@@]3(CCCN(C(=O)c4ccco4)C3)C2)cc1`: the AC50 was 3.16 µM [falling, single point].

For the compound `CCn1c(CNC(C)=O)nnc1SCC(=O)c1ccc(Br)cc1`, the AC50 is 25.1 µM [rising, partial curve].

Regarding `Cc1oc(C)c2c(=O)ccc3c(c12)OC(N)=C(C#N)C3c1ccccc1` (stereo not drawn), the AC50 is 0.631 µM [rising, full curve].

For the compound `Cc1cc(C)cc(NC2=NC3(CCCCC3)N=C(N)N2)c1`, the AC50 is 12.6 µM [rising, partial curve].

For the compound `COCCn1c(=O)c(-c2cccs2)nc2cnc(Oc3cccc(Cl)c3)nc21`, the AC50 is 12.6 µM [rising, partial curve].

As to `O=C(C1CCC1)N1CCc2cc(S(=O)(=O)N3CCc4ccccc4C3)ccc21`, the AC50 is 0.126 µM [falling, full curve, poor fit].

Consider `O=c1c(-c2ccc(F)cc2)nc2cnc(N3CCOCC3)nc2n1C[C@H]1CCCO1`, for which the AC50 is 0.631 µM [rising, full curve].

In the case of `COc1cccc(Cn2c(=O)c(C)nc3cnc(OCc4ccccc4)nc32)c1`, the AC50 was 10 µM [rising, partial curve].

Regarding `CN[C@@H](c1ccncc1)[C@@H](NC)c1ccncc1`, the AC50 was 1 µM [falling, single point].

As for `COCCCNC(=O)c1ccc2c(=O)n(C3CCCC3)c(=S)[nH]c2c1`, the AC50 is 5.01 µM [falling, single point].

Consider `N#Cc1cccc(-c2nc3cnc(Nc4ccccc4)nc3n(C[C@H]3CCCO3)c2=O)c1`, for which the AC50 is 5.01 µM [rising, partial curve].

For `CC1CCC2(CC1)NC(=O)N(Cc1nc(-c3ccccc3)no1)C2=O` (stereo not drawn), the AC50 was 6.31 µM [rising, partial curve].

The values are drawn from PubChem BioAssay AID662 (National Center for Advancing Translational Sciences (NCATS), 2007).
